Results as given in PubChem BioAssay AID186 (DTP/NCI, 2004).
Values are animals surviving of animals treated; these mice carried no tumour. Survivors were counted at the toxicity check, usually on the fifth day, unless a day is given; later deaths do not show. Schedules are NCI's codes, read here as Q, the interval in days (D) or hours (H), X, the number of doses. Some entries were tested several times; the results are listed from low to high.

Test system: B6D2F1 mice, nontumored toxicity test, survival
Experiment: NCI In Vivo Anticancer Drug Screen. Data for tumor model Nontumored Animals (Toxicity Test) in B6D2F1 (BDF1) mice
Details: vehicle: water

Measured: survivor count

C[n+]1ccc(Nc2ccc(NC(=O)c3ccc(Nc4cc[n+](C)c5ccc(N)cc45)cc3N)cc2)cc1
7 of 7: dose: 1.0 mg/kg/injection, schedule: Q01DX005 (iv)
4 of 8: dose: 16.0 mg/kg/injection, schedule: Q01DX005 (ip)
7 of 8 and 8 of 8: dose: 16.0 mg/kg/injection, schedule: Q04DX003 (ip) | dose: 16.0 mg/kg/injection, schedule: Q08DX002 (ip)
5 of 8: dose: 8.0 mg/kg/injection, schedule: Q03HX008 (ip)
0 of 8: dose: 8.0 mg/kg/injection, schedule: Q04DX003 (iv) | dose: 16.0 mg/kg/injection, schedule: Q01DX009 (ip) | dose: 16.0 mg/kg/injection, schedule: Q03HX016 (ip) | dose: 32.0 mg/kg/injection, schedule: Q01DX005 (ip) | dose: 32.0 mg/kg/injection, schedule: Q01DX009 (ip) | dose: 64.0 mg/kg/injection, schedule: Q01DX001 (ip) | dose: 64.0 mg/kg/injection, schedule: Q01DX005 (ip) | dose: 64.0 mg/kg/injection, schedule: Q01DX009 (ip) | dose: 64.0 mg/kg/injection, schedule: Q04DX003 (ip) | dose: 64.0 mg/kg/injection, schedule: Q08DX002 (ip) | dose: 128.0 mg/kg/injection, schedule: Q01DX001 (ip) | dose: 128.0 mg/kg/injection, schedule: Q04DX003 (ip) | dose: 128.0 mg/kg/injection, schedule: Q08DX002 (ip)
7 of 8: dose: 8.0 mg/kg/injection, schedule: Q01DX005 (ip) | dose: 8.0 mg/kg/injection, schedule: Q03HX016 (ip) | dose: 8.0 mg/kg/injection, schedule: Q03HX024 (ip) | dose: 16.0 mg/kg/injection, schedule: Q01DX001 (ip)
3 of 8: dose: 4.0 mg/kg/injection, schedule: Q01DX005 (iv) | dose: 32.0 mg/kg/injection, schedule: Q04DX003 (ip)
8 of 8: dose: 0.25 mg/kg/injection, schedule: Q01DX005 (iv) | dose: 0.5 mg/kg/injection, schedule: Q01DX005 (iv) | dose: 0.5 mg/kg/injection, schedule: Q01DX009 (ip) | dose: 0.5 mg/kg/injection, schedule: Q03HX008 (ip) | dose: 0.5 mg/kg/injection, schedule: Q03HX016 (ip) | dose: 0.5 mg/kg/injection, schedule: Q03HX024 (ip) | dose: 0.5 mg/kg/injection, schedule: Q04DX003 (iv) | dose: 1.0 mg/kg/injection, schedule: Q01DX009 (ip) | dose: 1.0 mg/kg/injection, schedule: Q01DX009 (oral) | dose: 1.0 mg/kg/injection, schedule: Q03HX008 (ip) | dose: 1.0 mg/kg/injection, schedule: Q03HX016 (ip) | dose: 1.0 mg/kg/injection, schedule: Q03HX024 (ip) | dose: 1.0 mg/kg/injection, schedule: Q03HX024 (oral) | dose: 1.0 mg/kg/injection, schedule: Q04DX003 (iv) | dose: 2.0 mg/kg/injection, schedule: Q01DX001 (ip) | dose: 2.0 mg/kg/injection, schedule: Q01DX005 (iv) | dose: 2.0 mg/kg/injection, schedule: Q01DX009 (ip) | dose: 2.0 mg/kg/injection, schedule: Q01DX009 (oral) | dose: 2.0 mg/kg/injection, schedule: Q03HX008 (ip) | dose: 2.0 mg/kg/injection, schedule: Q03HX016 (ip) | dose: 2.0 mg/kg/injection, schedule: Q03HX024 (ip) | dose: 2.0 mg/kg/injection, schedule: Q03HX024 (oral) | dose: 2.0 mg/kg/injection, schedule: Q04DX003 (ip) | dose: 2.0 mg/kg/injection, schedule: Q04DX003 (iv) | dose: 2.0 mg/kg/injection, schedule: Q08DX002 (ip) | dose: 4.0 mg/kg/injection, schedule: Q01DX001 (ip) | dose: 4.0 mg/kg/injection, schedule: Q01DX009 (ip) | dose: 4.0 mg/kg/injection, schedule: Q01DX009 (oral) | dose: 4.0 mg/kg/injection, schedule: Q03HX008 (ip) | dose: 4.0 mg/kg/injection, schedule: Q03HX016 (ip) | dose: 4.0 mg/kg/injection, schedule: Q03HX024 (ip) | dose: 4.0 mg/kg/injection, schedule: Q03HX024 (oral) | dose: 4.0 mg/kg/injection, schedule: Q04DX003 (ip) | dose: 4.0 mg/kg/injection, schedule: Q04DX003 (iv) | dose: 4.0 mg/kg/injection, schedule: Q08DX002 (ip) | dose: 8.0 mg/kg/injection, schedule: Q01DX001 (ip) | dose: 8.0 mg/kg/injection, schedule: Q01DX009 (ip) | dose: 8.0 mg/kg/injection, schedule: Q01DX009 (oral) | dose: 8.0 mg/kg/injection, schedule: Q03HX024 (oral) | dose: 8.0 mg/kg/injection, schedule: Q04DX003 (ip) | dose: 8.0 mg/kg/injection, schedule: Q08DX002 (ip)
1 of 8: dose: 16.0 mg/kg/injection, schedule: Q03HX008 (ip) | dose: 32.0 mg/kg/injection, schedule: Q01DX001 (ip)
2 of 8: dose: 16.0 mg/kg/injection, schedule: Q03HX024 (ip) | dose: 32.0 mg/kg/injection, schedule: Q08DX002 (ip)
